The list is a part of this screen's results and no random one: it gathers tests that were run many times, whatever their T/C, doses with no T/C, and many T/C values between a quarter and a half above the control. Other doses and runs of a compound stand elsewhere. T/C: endpoint of the treated group in % of that of the vehicle group. Some doses have a count of surviving animals in place of a T/C: the source holds a T/C of zero for them, seemingly a mark for toxic or unscored doses. Some doses without a T/C left all or most animals alive at the check, yet need not have been tolerated: survival well below the control is almost never listed, so the zero probably covers shortened survival too. Survivors were counted at the toxicity check, usually on the fifth day, unless a day is given; later deaths do not show. Schedule codes are those of the source, read here as Q, the interval in days (D) or hours (H), X, the number of doses. Some doses were run more than once; the values are given in rising order. Where survival is the endpoint, the PubChem record calls one and a half times the control and up active, and a quarter to a half above the control has no call in these data; cut-offs in other NCI protocols can differ.

Data on 24 compounds can be found in PubChem BioAssay AID248 (DTP/NCI, 2004).

The test relates to L1210 leukemia ip in BDF1 mice, survival T/C. Put plainly: NCI In Vivo Anticancer Drug Screen. Data for tumor model L1210 Leukemia (intraperitoneal) in B6D2F1 (BDF1) mice. Particulars: T/C endpoint: mean survival time, higher T/C = longer survival.
Setting [1] is: dose: 6.25 mg/kg/injection, schedule: Q01DX009 (ip), vehicle: saline with Tween-80.
The mark [2] stands for this setting: dose: 50.0 mg/kg/injection, schedule: Q01DX009 (ip), vehicle: saline with Tween-80.
Where [3] appears, read: dose: 200.0 mg/kg/injection, schedule: Q04DX003 (ip), vehicle: saline with Tween-80.
[4] abbreviates: dose: 400.0 mg/kg/injection, schedule: Q04DX003 (ip), vehicle: saline with Tween-80.
Where [5] appears, read: dose: 200.0 mg/kg/injection, schedule: Q04DX003 (ip), vehicle: saline.
[6] abbreviates: dose: 400.0 mg/kg/injection, schedule: Q04DX003 (ip), vehicle: saline.
Setting [7] is: dose: 400.0 mg/kg/injection, schedule: Q04DX002 (ip), vehicle: saline.
Where [8] appears, read: dose: 200.0 mg/kg/injection, schedule: Q04DX003 (ip), vehicle: Klucel (hydroxypropylcellulose) (HPC).
Where [9] appears, read: dose: 400.0 mg/kg/injection, schedule: Q04DX003 (ip), vehicle: Klucel (hydroxypropylcellulose) (HPC).
Setting [10] is: dose: 200.0 mg/kg/injection, schedule: Q04DX002 (ip), vehicle: Klucel (hydroxypropylcellulose) (HPC).
The mark [11] stands for this setting: dose: 400.0 mg/kg/injection, schedule: Q04DX002 (ip), vehicle: Klucel (hydroxypropylcellulose) (HPC).
[12] abbreviates: dose: 300.0 mg/kg/injection, schedule: Q01DX001 (ip), vehicle: saline.

Turning to `c1cc[c]([Sn]([c]2ccccc2)([c]2ccccc2)[n]2ccnc2)cc1`, the survivor count was 3 of 6 (dose: 20.0 mg/kg/injection, schedule: Q01DX001 (ip), vehicle: other); 1 of 6 (dose: 40.0 mg/kg/injection, schedule: Q01DX001 (ip), vehicle: other); 0 of 6 (dose: 80.0 mg/kg/injection, schedule: Q01DX001 (ip), vehicle: other); 0 of 6 (dose: 100.0 mg/kg/injection, schedule: Q01DX001 (ip), vehicle: other); 1 of 6 (dose: 200.0 mg/kg/injection, schedule: Q01DX001 (ip), vehicle: other); 0 of 6 (dose: 400.0 mg/kg/injection, schedule: Q01DX001 (ip), vehicle: other).

Regarding `COc1ccc2nc3cc(Cl)ccc3c(NC(C)CCCN(CCCl)CCCl)c2c1` (stereo not given), the survivor count (dose: 2.0 mg/kg/injection, schedule: Q01DX009 (ip), vehicle: saline) is reported as 3 of 6.

`C[n+]1ccc2cc(N)c3c4ccccc4sc3c2c1`: the survivor count reads like this: under setting [1], 5 of 6; (dose: 12.5 mg/kg/injection, schedule: Q01DX009 (ip), vehicle: saline with Tween-80) 3 of 6; (dose: 25.0 mg/kg/injection, schedule: Q01DX009 (ip), vehicle: saline with Tween-80) 3 of 6 and 5 of 6; under setting [2], 0 of 6; (dose: 100.0 mg/kg/injection, schedule: Q04DX003 (ip), vehicle: saline with Tween-80) 3 of 6; under setting [3], 1 of 6. Moreover, the survivor count under setting [4] is given as 0 of 6.

For the compound `CC(CN(C)C)C(=O)/C=C/c1ccccc1` (stereo not given), the survivor count is listed as 6 of 6 (dose: 75.0 mg/kg/injection, schedule: Q01DX009 (ip), vehicle: saline); 6 of 6 (dose: 100.0 mg/kg/injection, schedule: Q04DX003 (ip), vehicle: saline); 3 of 6 (dose: 115.0 mg/kg/injection, schedule: Q01DX009 (ip), vehicle: saline); 0 of 6 (dose: 170.0 mg/kg/injection, schedule: Q01DX009 (ip), vehicle: saline); 0 of 6 under setting [5]; 0 of 6 under setting [6].

`CN(C)CCC1(c2ccccc2)CCN(C)C1=O` (stereo not given): under “dose: 300.0 mg/kg/injection, schedule: Q01DX001 (ip), vehicle: carboxymethylcellulose (CMC)”, the survivor count is reported as 3 of 6.

In the case of `O=C(O)/C=C/c1ccc(Cl)cc1Cl`, the survivor count (dose: 400.0 mg/kg/injection, schedule: Q01DX009 (ip), vehicle: saline with Tween-80) was 3 of 6.

On to `O=C(O)c1ccc(C(=O)O)nn1`, for which the survivor count under setting [7] was 1 of 3.

With `CN(C)C(=S)NN`, the survivor count reads like this: under setting [1], 1 of 6; (dose: 12.5 mg/kg/injection, schedule: Q04DX003 (ip), vehicle: saline with Tween-80) 3 of 6; (dose: 25.0 mg/kg/injection, schedule: Q04DX003 (ip), vehicle: saline with Tween-80) 0 of 6; (dose: 50.0 mg/kg/injection, schedule: Q04DX003 (ip), vehicle: saline with Tween-80) 0 of 6.

As to `O=c1c(Br)cc(Cl)nc2c(Br)cc(Br)cc12`, the survivor count is, setting by setting: (dose: 100.0 mg/kg/injection, schedule: Q01DX009 (ip), vehicle: Klucel (hydroxypropylcellulose) (HPC)) 2 of 6; (dose: 200.0 mg/kg/injection, schedule: Q01DX009 (ip), vehicle: Klucel (hydroxypropylcellulose) (HPC)) 2 of 6; under setting [8], 1 of 6; under setting [9], 0 of 6.

Turning to `CCc1nnnn1C12CC3CC(CC(C3)C1)C2`, the survivor count by setting is: under setting [5], 1 of 6; under setting [6], 0 of 6.

For `O=C(Nc1ccc(Cl)cc1C(=O)c1ccccc1)c1ccc(Cl)cc1Cl`, the survivor count under setting [10] is recorded as 3 of 3.

In the case of `[NH-]C(CC(N)=O)C(=O)O.[NH-]C(CC(N)=O)C(=O)O.[Zn+2]` (stereo not given), the survivor count reads like this: (dose: 100.0 mg/kg/injection, schedule: Q04DX002 (ip), vehicle: saline) 1 of 3; (dose: 200.0 mg/kg/injection, schedule: Q04DX002 (ip), vehicle: saline) 0 of 3; under setting [7], 0 of 3.

For the compound `O=P(O)(c1ccccc1)c1ccccc1`, the survivor count under setting [11] is reported as 3 of 3.

Regarding `CC1CCC(C(C)C)C(NCCO)C1` (stereo not given), the survivor count reads like this: (dose: 150.0 mg/kg/injection, schedule: Q01DX001 (ip), vehicle: saline) 1 of 6; under setting [12], 0 of 6.

Turning to `COc1ccc2c(c1)CC1c3[nH]c4ccccc4c3CCN1C2` (stereo not given), for the setting “dose: 400.0 mg/kg/injection, schedule: Q01DX001 (ip), vehicle: Klucel (hydroxypropylcellulose) (HPC)”, the survivor count is listed as 0 of 6.

In the case of `COc1cccc(CNC(C)(CO)CO)c1OC`, the survivor count (dose: 400.0 mg/kg/injection, schedule: Q01DX001 (ip), vehicle: saline) is recorded as 0 of 4.

`CCCCCCCCCCC(=O)OCC1OC2C(Oc3nc(=N)ccn32)C1OC(=O)CCCCCCCCCC` (stereo not given): for the setting “dose: 12.5 mg/kg/injection, schedule: Q01DX009 (ip), vehicle: water”, the T/C was 138 % of control. Besides, the survivor count reads like this: (dose: 100.0 mg/kg/injection, schedule: Q01DX009 (ip), vehicle: water) 5 of 6; (dose: 200.0 mg/kg/injection, schedule: Q01DX009 (ip), vehicle: water) 1 of 6.

With `COc1ccc(CC2=NCCN2)cc1`, the survivor count runs as follows: under setting [3], 2 of 6; under setting [4], 0 of 6.

For `O=C/C=C/c1ccc([N+](=O)[O-])cc1`, the survivor count runs as follows: under setting [2], 5 of 6; (dose: 200.0 mg/kg/injection, schedule: Q01DX009 (ip), vehicle: saline with Tween-80) 3 of 6.

Consider `COC(=O)[CH]([Hg][CH](C(=O)OC)C(=O)OC)C(=O)OC`, for which the survivor count by setting is: (dose: 12.5 mg/kg/injection, schedule: Q04DX002 (ip), vehicle: Klucel (hydroxypropylcellulose) (HPC)) 3 of 3; (dose: 25.0 mg/kg/injection, schedule: Q04DX002 (ip), vehicle: Klucel (hydroxypropylcellulose) (HPC)) 1 of 3; (dose: 50.0 mg/kg/injection, schedule: Q04DX002 (ip), vehicle: Klucel (hydroxypropylcellulose) (HPC)) 0 of 3; (dose: 100.0 mg/kg/injection, schedule: Q04DX002 (ip), vehicle: Klucel (hydroxypropylcellulose) (HPC)) 0 of 3; under setting [10], 0 of 3; under setting [11], 0 of 3.

In the case of `CCC1(Sc2ncnc3nc[nH]c23)C(=O)NC(=O)NC1=O`, the T/C is, setting by setting: (dose: 12.5 mg/kg/injection, schedule: Q01DX015 (ip), vehicle: alkali diluted with saline) 126 % of control; (dose: 25.0 mg/kg/injection, schedule: Q01DX015 (ip), vehicle: alkali diluted with saline) 134 % of control; (dose: 50.0 mg/kg/injection, schedule: Q01DX015 (ip), vehicle: alkali diluted with saline) 140 % of control; (dose: 100.0 mg/kg/injection, schedule: Q01DX015 (ip), vehicle: alkali diluted with saline) 145 % of control. Besides, the survivor count (dose: 800.0 mg/kg/injection, schedule: Q01DX001 (ip), vehicle: alkali diluted with saline) is on record as 2 of 6.

For `O=C(O)/C=C/Sc1ccccc1`, the survivor count reads like this: (dose: 100.0 mg/kg/injection, schedule: Q04DX003 (ip), vehicle: Klucel (hydroxypropylcellulose) (HPC)) 2 of 6 and 4 of 6; under setting [8], 0 of 6; under setting [9], 0 of 6.

As for `Nc1ccc(C(=O)OCCCCC2CCCC2N)cc1` (stereo not given), the survivor count under setting [12] is reported as 0 of 6.

With `Cn1cnccc1=S`, the survivor count (dose: 100.0 mg/kg/injection, schedule: Q01DX001 (ip), vehicle: saline) was 3 of 6.
